“Also recorded” adds a separate entry of the source.
Test system: RPE/outer retina
Test: DNIRA: delayed fluorescence imaging by cSLO after systemic dye injection
Type: in vivo, Sprague Dawley rats
Conditions: single IV ICG injection

## CC1(C)C(/C=C/C=C/C=C/C=C2\N(CCCCS(=O)(=O)[O-])c3ccc4ccccc4c3C2(C)C)=[N+](CCCCS(=O)(=O)[O-])c2ccc3ccccc3c21.[Na+] [ICG]
High dose 5 mg/kg, 5 mg/kg
  delayed NIR fluorescence (DNIRA, 795/810 nm): delayed and persistent fluorescence; also recorded: little appreciable difference between days 3 and 28 post-injection; also recorded: remains strong and distributed throughout the fundus out to 28 days; also recorded: persisted largely unchanged out to 21 days
Low dose 0.35 mg/kg, 0.35 mg/kg
  delayed NIR fluorescence (DNIRA, 795/810 nm): faded; also recorded: gradual fading from 48 hours to 21 days post-injection

— patent US12377171B2, “Methods for treating and diagnosing blinding eye diseases” (Translatum Medicus Inc., priority 2012, dated 2025)
